Screen size: about 320,000 compounds; about 22,000 (6.9%) were called active. Inconclusive means that the source gave no clear call. Such entries were picked first, then a sample of the others. Calls follow the shape of the dose curve; as a rule, active = well fitted inhibition curve with a large enough effect; inconclusive = small, poorly fitted or top-dose-only effect, or another doubt; inactive = no such curve, though single readings can be large or run the other way. A potency beside an inconclusive call is a rough fit, not a confirmed value.
Assay: Primary qHTS for delayed death inhibitors of the malarial parasite plastid, 96 hour incubation
Conditions: P. falciparum luciferase reporter growth; series mostly up to 28.7 µM
Summary of the method: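 Two-generation exposure (96 h) targets delayed-death phenotype. Reporter parasites carrying integrated firefly luciferase, in red cells at 2% hematocrit and 0.05% parasitemia final, kept at 37 C, 5% CO2; luminescence loss indicates inhibition.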
Potency is read from the fitted curve at half-maximal effect.

Row | Compound | Potency
1 | O=[N+]([O-])c1cccc(S(=O)(=O)NCCc2ccccc2)c1 | inconclusive: 18.5 µM [inhibitor, single point]
2 | COc1cccc(CNC(=O)c2nnn(CC(=O)Nc3ccc4c(c3)OCO4)c2N)c1 | inconclusive: 7.38 µM [inhibitor, partial curve, poor fit]
3 | O=C(NCC(c1ccco1)N1CCCC1)c1cccc(S(=O)(=O)Nc2ccc(F)cc2)c1 (stereo unspecified) | active: 14.7 µM
4 | CCN1CCN(c2ncc3c(n2)CC(c2ccc(OC)c(OC)c2)CC3=O)CC1 (stereo unspecified) | inconclusive: 18.5 µM [inhibitor, single point]
5 | CSc1cccc(NC(=O)C2CC(=O)N(Cc3ccccc3)C2)c1 (stereo unspecified) | inactive
6 | CNC(=O)COC(=O)c1ccccc1C(=O)c1ccc(Cl)c([N+](=O)[O-])c1 | inactive
7 | CCCN1CCN(S(=O)(=O)c2ccc3c(c2)CC(C)N3C(=O)C2CC2)CC1 (stereo unspecified) | inconclusive: 7.38 µM [inhibitor, partial curve, poor fit]
8 | COc1ccc(C2SCC(=O)N2c2c(C)n(C)n(-c3ccccc3)c2=O)c(OC)c1 (stereo unspecified) | inconclusive: 18.5 µM [inhibitor, single point]
9 | COc1ccc(NC(=O)c2ccco2)cc1NC(=O)c1cc2ccccc2o1 | inconclusive: 5.22 µM [inhibitor, partial curve, poor fit]
10 | CCOC(=O)c1cccc(-c2ccc(C=O)o2)c1 | inconclusive: 10.4 µM [inhibitor, single point]
11 | Cc1c(Br)c([N+](=O)[O-])nn1CCCC(=O)Nc1sc2c(c1C#N)CCC2 | inconclusive: 13.1 µM [inhibitor, single point]
12 | Cc1cc2nc(C3CCN(Cc4nnnn4Cc4cccs4)CC3)[nH]c2cc1C | inactive
13 | CC(OC(=O)c1ccco1)C(=O)NC1CCCC1 (stereo unspecified) | inactive
14 | COc1ccc(N2CSC3=C(C#N)C(c4cccc(OC)c4OC)CC(=O)N3C2)cc1 (stereo unspecified) | inconclusive: 18.5 µM [inhibitor, single point]
15 | CCC(C)[C@H]1COCCS(=O)(=O)N1Cc1ccc(Cl)cc1Cl (stereo partly specified) | inconclusive: 1.04 µM [inhibitor, partial curve, poor fit]
16 | O=C(OCc1ccccc1)/C(=C(\O)c1ccccc1Br)c1ccc(-c2ccccc2)cn1 | inactive
17 | CCC(CC)NC(=O)CSc1ccc(S(=O)(=O)N2CCCCC2)cn1 | inconclusive: 5.22 µM [inhibitor, partial curve, poor fit]
18 | COCCOC(=O)c1c(C)n(C)c2ccc(OC(=O)c3ccccc3F)cc12 | inactive
19 | COc1cc([N+](=O)[O-])ccc1NC(=S)Nc1cc(C(=O)OC(C)C)cc(C(=O)OC(C)C)c1 | inconclusive: 10.4 µM [inhibitor, single point]
20 | Cc1ccc(C(=O)NNC(=O)c2cccc(Br)c2)cc1 | inconclusive: 10.4 µM [inhibitor, partial curve, poor fit]
21 | CC1CCN(CC(C)OC(=O)c2ccco2)CC1 (stereo unspecified) | inconclusive: 13.1 µM [inhibitor, single point]
22 | COCCn1c(COc2ccc(C)cc2)nc2ccccc21 | inconclusive: 18.5 µM [inhibitor, single point]

Row | Compound | Potency
23 | COc1ccc(-c2nc(=S)[nH][nH]2)cc1OC | inactive
24 | CCCc1cc(=O)[nH]c(SCC(=O)Nc2ccc(OC(F)F)cc2)n1 | inactive
25 | COCCNC(=O)CSc1nc2ccc(N3CCOCC3)cc2c(=O)n1Cc1ccc(OC)cc1 | inconclusive: 8.28 µM [inhibitor, partial curve, poor fit]
26 | O=C(Cn1cnc2cc([N+](=O)[O-])ccc2c1=O)NC(c1ccccc1)c1ccccc1 | inconclusive: 8.28 µM [inhibitor, partial curve, poor fit]
27 | O=C(NCCc1ccc(F)cc1)c1cccs1 | inconclusive: 18.5 µM [inhibitor, single point]
28 | COc1ccccc1C(=O)N(Cc1ccc(Cl)cc1)C1CCS(=O)(=O)C1 (stereo unspecified) | active: 11.7 µM
29 | CC1CCc2nn(CC(=O)NCCC3=CCCCC3)cc2C1 (stereo unspecified) | inconclusive: 18.5 µM [inhibitor, single point]
30 | CCCCOc1ccccc1C1NC(=O)NC(C)=C1C(=O)OCCOCC (stereo unspecified) | inconclusive: 18.5 µM [inhibitor, single point]
31 | O=C(COc1ccc(S(=O)(=O)NC2CCCCC2)cc1)NCc1ccccn1 | active: 4.15 µM
32 | COc1cccc2cc(C(C)N(CCCN3CCOCC3)C(=S)Nc3ccc(C)cc3)oc12 (stereo unspecified) | inconclusive: 16.5 µM [inhibitor, single point]
33 | CCCCN1CC(=O)N2[C@H](c3ccc(OC)cc3)[C@@H]3C(=O)N(CC)C(=O)[C@@H]3[C@]2(Cc2ccccc2)C1=O | inactive
34 | CC(C)NC(=O)COc1ccc(S(=O)(=O)N(C)Cc2ccccc2)cc1 | inactive
35 | CCOc1ccc(-c2nnc(NC(=O)Cc3ccc(OC)cc3)o2)cc1 | inactive
36 | CCOC(=O)Cn1cc([N+](=O)[O-])nc1[N+](=O)[O-] | inconclusive: 11.7 µM [inhibitor, partial curve]
37 | Cc1ccccc1C(=O)N1CCC(C(=O)N(CC(C)C)c2c(N)n(Cc3ccccc3)c(=O)[nH]c2=O)CC1 | inactive
38 | COc1ccc(N=C2NC(=O)C(CO)(CO)S2)cc1 | inconclusive: 2.33 µM [inhibitor, partial curve, poor fit]
39 | NC(=O)CSc1ncc(-c2ccccc2)[nH]1 | inconclusive: 18.5 µM [inhibitor, single point]
40 | CCCc1cc(=O)oc2cc(C)cc(OCC(=O)NC3CCN(Cc4ccccc4)CC3)c12 | inconclusive: 1.85 µM [inhibitor, full curve, poor fit]
41 | COc1ccc(S(=O)(=O)N2CCCCC2)cc1-n1cnnn1 | inconclusive: 18.5 µM [inhibitor, single point]
42 | Cc1ccc(N(C(=O)C2CCCC2)C2C=CS(=O)(=O)C2)cc1C (stereo unspecified) | inconclusive: 18.5 µM [inhibitor, single point]
43 | Cc1ccc(CNc2ccc(N3CCOCC3)cc2)cc1 | inactive
44 | Cc1ccc2nc(-c3ccc(NC(=O)CN4C(=O)NC(C)(c5ccc(OC(F)F)cc5)C4=O)cc3)sc2c1 (stereo unspecified) | inactive

Row | Compound | Potency
45 | COC(=O)[C@H](CC(C)C)NCc1cccc(CN[C@@H](CC(C)C)C(=O)OC)c1 | inconclusive: 20.8 µM [inhibitor, partial curve, poor fit]
46 | CC1(C)OC(C(O)(c2ccccc2)c2ccccc2)[C@@H](C(O)(c2ccccc2)c2ccccc2)O1 (stereo partly specified) | inconclusive: 14.7 µM [inhibitor, partial curve, poor fit]
47 | CCCCc1c(CCC)c(=N)c2ccccc2n1C | inactive
48 | Brc1ccc(-c2csc(N/N=C/c3ccc4c(c3)OCO4)n2)cc1 | inconclusive: 10.4 µM [inhibitor, single point]
49 | CCn1nccc1C(=O)Nc1ccc(S(=O)(=O)NC23CC4CC(CC(C4)C2)C3)cc1 | active: 6.57 µM
50 | COC(=O)c1cc(NC(=O)CN2CCOCC2)cc(C(=O)OC)c1 | inactive
51 | N#Cc1c(-c2ccc(Cl)cc2)cc(-c2ccccc2)nc1SCC(=O)O | inconclusive: 18.5 µM [inhibitor, single point]
52 | FC(F)(F)c1ccncc1-c1nnc(C2CCCCC2)o1 | inconclusive: 4.15 µM [inhibitor, partial curve, poor fit]
53 | Cc1ccc(C)c(NC(=O)CSc2nc3ccccc3nc2N2CCOCC2)c1 | inconclusive: 7.38 µM [inhibitor, partial curve, poor fit]
54 | CC(Sc1nc(C(F)(F)F)nc2ccccc12)C(=O)NC1CCCC1 (stereo unspecified) | inconclusive: 0.0037 µM [inhibitor, full curve, poor fit]
55 | COc1cc(CN2CCC(Oc3cc(C(=O)NC4CC4)ccc3OC)CC2)cc(OC)c1 | inconclusive: 18.5 µM [inhibitor, single point]
56 | Cc1cc(=O)n2[nH]c(N3C(=O)CCC3=O)nc2n1 | inconclusive: 11.7 µM [inhibitor, single point]
57 | COC(=O)C1C(c2ccc(OC)c(OC)c2)NC(c2ccc(OC)c(OC)c2)C(C(=O)OC)S1(=O)=O (stereo unspecified) | inconclusive: 16.5 µM [inhibitor, single point]
58 | COc1ccccc1NC(=O)C/C(C)=N/NC(=O)c1ccccn1 | inactive
59 | Cc1ccnc(N2CCCC(C(=O)NC3CC3)C2)n1 (stereo unspecified) | inconclusive: 5.22 µM [inhibitor, partial curve]
60 | CC(C)(C)OC(=O)N1CCC(NC(=O)c2nc[nH]c2C(=O)NCc2ccccc2)CC1 | inconclusive: 4.15 µM [inhibitor, full curve, poor fit]
61 | c1ccc(Cn2nnc3c(NCc4ccc5c(c4)OCO5)ncnc32)cc1 | inconclusive: 18.5 µM [inhibitor, single point]
62 | O=C(O/N=C1\CCS(=O)(=O)c2sccc21)c1ccccc1 | inconclusive: 20.8 µM [inhibitor, partial curve, poor fit]
63 | O=[N+]([O-])c1ccc(O)c(C=Nc2cccc3ccccc23)c1 | inconclusive: 13.1 µM [inhibitor, single point]
64 | CC1CCN(S(=O)(=O)c2ccc(NC(=O)Cc3ccc(S(=O)(=O)N4CCOCC4)s3)cc2)CC1 | inconclusive: 5.22 µM [inhibitor, partial curve]
65 | COC(=O)c1sc(N)c(C(=O)OC)c1COC(=O)c1c(C)noc1C | inconclusive: 18.5 µM [inhibitor, single point]
66 | Cc1cc(=O)[nH]c(N/N=C/C2=C(N3CCOCC3)C(=C\c3ccc(Cl)cc3)/CC2)n1 | inconclusive: 16.5 µM [inhibitor, single point]

Given tab-delimited: two of the compounds above
Row	Compound	Potency
53	Cc1ccc(C)c(NC(=O)CSc2nc3ccccc3nc2N2CCOCC2)c1	inconclusive: 7.38 µM [inhibitor, partial curve, poor fit]
58	COc1ccccc1NC(=O)C/C(C)=N/NC(=O)c1ccccn1	inactive

Reference: PubChem BioAssay AID504834 (National Center for Advancing Translational Sciences (NCATS), 2011)
